Test results from patent publication US20080124366A1, “Methods and Compositions for Treating Tumors” (priority 2006, published 2008).
Some entries share one result that the patent states for a list of compounds.

System: intracranial GL261-Luc glioma
Test: s.c. vaccination of mice bearing intracranial GL261-Luc glioma, bioluminescent imaging and survival (Example 5)
Assay type: in vivo, C57BL/6 mice
Conditions: s.c. days 4, 11, 18
Method: Glioma model and in vivo imaging. Six to seven week old female C57BL/6 mice were purchased from Jackson Laboratory and maintained in a specific pathogen free (SPF) facility according to the guidelines of the University of Minnesota Animal Care and Use Committee (IACUC). For intracranial tumor inoculations, animals were deeply anesthetized with a ketamine/xylazine cocktail solution (53.7 mg/ml ketamine, 9.26 mg/ml xylazine) delivered at 1 ml/kg. 10,000 GL261-Luc cells in 1 μl of PBS were implanted stereotactically into the right striatum; coordinates were 2.2 mm lateral, and 0.5 mm posterior of bregma, and 3 mm ventral from the cortical surface of the brain. For imaging mice were deeply anesthetized by i.p. injection with avertin (225 mg/kg) and injected with 100 μl of luciferin (substrate for luciferase enzyme; 28.5 mg/ml, Xenogen®, Hopkinton, Mass.). Mice were imaged five minutes after luciferin injection using the Ivis 50 system (Xenogen®). […] Luciferase activity was analyzed using living image software (version 2.5; Xenogen®) according to the manufacturer's instructions. […]
Statistical analysis. […] Differences in animal survival between treatment groups were evaluated by log-rank statistical analysis with Sigmastat software (Systat Software, Inc. San Jose, Calif.); only P values <0.05 were considered significant.

5′-TCGTCGTTTTGTCGTTTTGTCGTT-3′ [CpG ODN]
time within which all mice died: ≤ 32 days
